Measurements taken from paper PMC10542231.
No constants are given. Whether binding was seen depends on the method and setting. In cells and extracts the contact can be indirect. Some entries that bind do so weakly or less than the wild type.

Protein sequences, listed by entry. Tags and fused reporters are not part of them. Lines headed by an entry give the natural chain unless they say otherwise; changes in a name come on top.
UniProt Q13535: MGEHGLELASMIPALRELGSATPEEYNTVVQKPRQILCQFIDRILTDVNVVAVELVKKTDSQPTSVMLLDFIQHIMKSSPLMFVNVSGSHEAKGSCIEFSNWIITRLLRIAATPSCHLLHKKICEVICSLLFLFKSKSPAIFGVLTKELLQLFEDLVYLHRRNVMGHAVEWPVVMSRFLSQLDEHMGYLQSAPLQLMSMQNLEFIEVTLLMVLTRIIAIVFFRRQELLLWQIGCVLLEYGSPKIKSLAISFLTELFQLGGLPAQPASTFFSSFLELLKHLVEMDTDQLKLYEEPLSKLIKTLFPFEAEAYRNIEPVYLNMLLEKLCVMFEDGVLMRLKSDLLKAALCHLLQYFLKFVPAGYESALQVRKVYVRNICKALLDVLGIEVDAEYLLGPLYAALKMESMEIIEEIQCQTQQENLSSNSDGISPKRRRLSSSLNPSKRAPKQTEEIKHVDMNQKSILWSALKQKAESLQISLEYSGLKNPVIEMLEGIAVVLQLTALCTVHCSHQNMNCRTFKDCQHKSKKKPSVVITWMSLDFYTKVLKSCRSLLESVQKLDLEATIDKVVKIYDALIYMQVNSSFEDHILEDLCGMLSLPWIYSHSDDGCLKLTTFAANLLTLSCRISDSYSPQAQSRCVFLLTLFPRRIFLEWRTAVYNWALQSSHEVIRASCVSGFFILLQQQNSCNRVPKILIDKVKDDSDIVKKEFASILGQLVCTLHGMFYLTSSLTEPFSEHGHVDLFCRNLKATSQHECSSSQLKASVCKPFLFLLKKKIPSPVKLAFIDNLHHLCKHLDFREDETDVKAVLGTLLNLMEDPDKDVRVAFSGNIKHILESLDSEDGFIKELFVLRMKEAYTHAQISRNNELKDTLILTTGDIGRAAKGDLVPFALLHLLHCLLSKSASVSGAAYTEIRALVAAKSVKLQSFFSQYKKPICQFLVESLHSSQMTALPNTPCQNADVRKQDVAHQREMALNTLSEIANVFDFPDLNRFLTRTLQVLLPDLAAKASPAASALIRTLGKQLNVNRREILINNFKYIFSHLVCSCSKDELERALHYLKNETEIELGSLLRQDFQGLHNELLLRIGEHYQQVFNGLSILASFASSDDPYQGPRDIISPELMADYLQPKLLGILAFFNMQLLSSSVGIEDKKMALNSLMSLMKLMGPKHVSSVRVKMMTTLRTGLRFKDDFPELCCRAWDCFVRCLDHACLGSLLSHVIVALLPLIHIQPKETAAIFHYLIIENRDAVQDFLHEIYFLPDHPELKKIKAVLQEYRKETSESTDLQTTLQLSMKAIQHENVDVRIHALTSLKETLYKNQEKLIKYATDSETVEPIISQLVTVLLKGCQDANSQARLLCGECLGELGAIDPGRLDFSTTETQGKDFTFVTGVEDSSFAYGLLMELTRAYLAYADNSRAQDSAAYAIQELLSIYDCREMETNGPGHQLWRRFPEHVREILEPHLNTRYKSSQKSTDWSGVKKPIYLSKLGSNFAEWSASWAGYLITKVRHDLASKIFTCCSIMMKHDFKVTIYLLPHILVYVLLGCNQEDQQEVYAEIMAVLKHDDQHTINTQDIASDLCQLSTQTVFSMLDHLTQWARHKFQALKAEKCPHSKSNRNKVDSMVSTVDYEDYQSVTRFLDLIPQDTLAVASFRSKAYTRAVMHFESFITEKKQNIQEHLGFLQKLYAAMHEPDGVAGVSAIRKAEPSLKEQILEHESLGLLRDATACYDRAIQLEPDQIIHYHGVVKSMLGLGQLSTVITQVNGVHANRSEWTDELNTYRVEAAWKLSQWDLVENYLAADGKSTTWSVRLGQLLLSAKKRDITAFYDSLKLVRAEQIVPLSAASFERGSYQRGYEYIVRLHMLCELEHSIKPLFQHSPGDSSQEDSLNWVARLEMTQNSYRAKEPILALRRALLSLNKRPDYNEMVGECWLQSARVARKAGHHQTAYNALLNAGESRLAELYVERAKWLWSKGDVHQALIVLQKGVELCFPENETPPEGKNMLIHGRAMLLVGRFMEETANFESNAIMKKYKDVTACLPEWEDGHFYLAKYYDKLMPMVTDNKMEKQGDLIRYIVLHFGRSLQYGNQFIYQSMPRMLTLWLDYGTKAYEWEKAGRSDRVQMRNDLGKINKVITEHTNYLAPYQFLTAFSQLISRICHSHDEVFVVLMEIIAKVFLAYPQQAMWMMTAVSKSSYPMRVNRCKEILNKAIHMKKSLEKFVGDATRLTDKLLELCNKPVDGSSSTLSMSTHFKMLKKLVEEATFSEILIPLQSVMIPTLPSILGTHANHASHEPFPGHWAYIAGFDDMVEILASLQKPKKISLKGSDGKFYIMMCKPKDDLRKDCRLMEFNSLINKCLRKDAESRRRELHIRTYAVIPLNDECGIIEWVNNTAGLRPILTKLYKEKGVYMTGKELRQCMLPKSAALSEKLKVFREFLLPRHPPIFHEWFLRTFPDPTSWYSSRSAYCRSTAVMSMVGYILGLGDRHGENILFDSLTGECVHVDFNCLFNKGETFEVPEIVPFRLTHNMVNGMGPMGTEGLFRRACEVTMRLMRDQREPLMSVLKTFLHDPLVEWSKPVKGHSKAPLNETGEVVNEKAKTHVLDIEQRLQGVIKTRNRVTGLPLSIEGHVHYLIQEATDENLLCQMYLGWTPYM

Columns and labels:
[1] = biological target: T1, Mre11 (human (endogenous in HCT116)) (UniProt P49959); assay: co-IP; Pierce Crosslink IP Kit; antibody against ATR or Mre11 (5 ug) crosslinked to Protein A/G Plus Agarose; 1 mg total lysate of sg-ctrl and scaRNA2 knockdown HCT116 cells, 8 h after 8 Gy irradiation; overnight at 4 °C; western blot
T1 sequence: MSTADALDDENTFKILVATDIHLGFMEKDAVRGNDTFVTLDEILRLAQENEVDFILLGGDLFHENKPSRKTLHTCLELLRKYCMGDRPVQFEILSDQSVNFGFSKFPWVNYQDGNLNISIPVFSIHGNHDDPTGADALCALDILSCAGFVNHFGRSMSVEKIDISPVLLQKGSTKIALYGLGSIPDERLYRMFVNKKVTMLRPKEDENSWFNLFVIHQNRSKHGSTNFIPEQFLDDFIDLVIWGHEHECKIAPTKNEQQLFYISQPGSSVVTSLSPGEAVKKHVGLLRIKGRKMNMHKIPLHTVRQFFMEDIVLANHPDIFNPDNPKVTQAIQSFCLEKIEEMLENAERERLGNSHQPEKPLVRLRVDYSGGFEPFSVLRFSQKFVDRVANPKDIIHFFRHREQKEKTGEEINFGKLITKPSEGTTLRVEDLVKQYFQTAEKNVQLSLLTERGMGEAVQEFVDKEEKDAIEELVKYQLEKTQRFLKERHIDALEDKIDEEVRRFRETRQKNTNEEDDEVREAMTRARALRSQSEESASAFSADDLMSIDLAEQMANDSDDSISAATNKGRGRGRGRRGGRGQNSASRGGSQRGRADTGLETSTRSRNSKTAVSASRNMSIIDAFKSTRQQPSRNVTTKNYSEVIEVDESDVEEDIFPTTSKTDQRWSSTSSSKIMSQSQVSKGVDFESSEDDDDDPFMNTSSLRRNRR

[2] = biological target: T2, Mre11 (human (endogenous in HCT116)), P49959; assay: as above; conditions: remark: other sources report otherwise
T2 chain: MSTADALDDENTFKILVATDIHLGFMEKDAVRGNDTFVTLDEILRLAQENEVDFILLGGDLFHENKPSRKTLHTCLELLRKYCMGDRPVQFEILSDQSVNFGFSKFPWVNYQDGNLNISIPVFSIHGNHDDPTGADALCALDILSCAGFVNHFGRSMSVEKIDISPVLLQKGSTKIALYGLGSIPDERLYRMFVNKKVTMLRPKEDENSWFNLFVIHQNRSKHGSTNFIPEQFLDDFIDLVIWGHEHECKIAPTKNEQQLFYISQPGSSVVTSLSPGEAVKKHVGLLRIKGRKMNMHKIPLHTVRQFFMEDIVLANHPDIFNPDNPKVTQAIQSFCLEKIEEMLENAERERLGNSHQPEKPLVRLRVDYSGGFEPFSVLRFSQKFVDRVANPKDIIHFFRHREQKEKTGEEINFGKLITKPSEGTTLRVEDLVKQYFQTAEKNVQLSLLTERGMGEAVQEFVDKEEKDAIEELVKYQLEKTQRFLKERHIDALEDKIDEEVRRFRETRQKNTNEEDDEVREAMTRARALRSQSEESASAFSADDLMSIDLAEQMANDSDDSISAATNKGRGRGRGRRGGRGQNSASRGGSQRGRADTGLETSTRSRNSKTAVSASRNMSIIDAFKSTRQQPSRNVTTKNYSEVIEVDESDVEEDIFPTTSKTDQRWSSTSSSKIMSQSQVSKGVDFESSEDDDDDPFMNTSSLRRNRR

Molecule: Ataxia telangiectasia-mutated and Rad3-related (ATR) (from UniProt Q13535 1-2644)
- binding [1]: binds

B1: Exo1, Q9UQ84 1-846 (protein)
chain: MGIQGLLQFIKEASEPIHVRKYKGQVVAVDTYCWLHKGAIACAEKLAKGEPTDRYVGFCMKFVNMLLSHGIKPILVFDGCTLPSKKEVERSRRERRQANLLKGKQLLREGKVSEARECFTRSINITHAMAHKVIKAARSQGVDCLVAPYEADAQLAYLNKAGIVQAIITEDSDLLAFGCKKVILKMDQFGNGLEIDQARLGMCRQLGDVFTEEKFRYMCILSGCDYLSSLRGIGLAKACKVLRLANNPDIVKVIKKIGHYLKMNITVPEDYINGFIRANNTFLYQLVFDPIKRKLIPLNAYEDDVDPETLSYAGQYVDDSIALQIALGNKDINTFEQIDDYNPDTAMPAHSRSHSWDDKTCQKSANVSSIWHRNYSPRPESGTVSDAPQLKENPSTVGVERVISTKGLNLPRKSSIVKRPRSAELSEDDLLSQYSLSFTKKTKKNSSEGNKSLSFSEVFVPDLVNGPTNKKSVSTPPRTRNKFATFLQRKNEESGAVVVPGTRSRFFCSSDSTDCVSNKVSIQPLDETAVTDKENNLHESEYGDQEGKRLVDTDVARNSSDDIPNNHIPGDHIPDKATVFTDEESYSFESSKFTRTISPPTLGTLRSCFSWSGGLGDFSRTPSPSPSTALQQFRRKSDSPTSLPENNMSDVSQLKSEESSDDESHPLREEACSSQSQESGEFSLQSSNASKLSQCSSKDSDSEESDCNIKLLDSQSDQTSKLRLSHFSKKDTPLRNKVPGLYKSSSADSLSTTKIKPLGPARASGLSKKPASIQKRKHHNAENKPGLQIKLNELWKNFGFKKDSEKLPPCKKPLSPVRDNIQLTPEAEEDIFNKPECGRVQRAIFQ
- binding [2]: binds
